Measured values from article PMC4077574.

Substrate: PIF conjugated to agarose resin (PIF-resin affinity column)
Assay: affinity purification with mass spectrometry; only the target purified

B1: 14-3-3 protein gamma (protein, UniProt P61982 1-247)
chain: MVDREQLVQKARLAEQAERYDDMAAAMKNVTELNEPLSNEERNLLSVAYKNVVGARRSSWRVISSIEQKTSADGNEKKIEMVRAYREKIEKELEAVCQDVLSLLDNYLIKNCSETQYESKVFYLKMKGDYYRYLAEVATGEKRATVVESSEKAYSEAHEISKEHMQPTHPIRLGLALNYSVFYYEIQNAPEQACHLAKTAFDDAIAELDTLNEDSYKDSTLIMQLLRDNLTLWTSDQQDDDGGEGNN
Question: How did the binding turn out when B1 was run?
Answer: binds

No constants are given. Whether binding was seen depends on the method and setting. Binding seen in cells or lysates may run through a third protein. These calls come from enrichment with a bait or labelling near it, and not all partners need be listed.
